Laboratory results: US20110312505A1
Results are given in words; binding and its absence hold for the method and conditions named. Some entries that bind do so weakly or less than the wild type.

The chains behind the UniProt entries cited, without tags or fusion partners. Residues count along the entry.
UniProt P09871, residues 16-688: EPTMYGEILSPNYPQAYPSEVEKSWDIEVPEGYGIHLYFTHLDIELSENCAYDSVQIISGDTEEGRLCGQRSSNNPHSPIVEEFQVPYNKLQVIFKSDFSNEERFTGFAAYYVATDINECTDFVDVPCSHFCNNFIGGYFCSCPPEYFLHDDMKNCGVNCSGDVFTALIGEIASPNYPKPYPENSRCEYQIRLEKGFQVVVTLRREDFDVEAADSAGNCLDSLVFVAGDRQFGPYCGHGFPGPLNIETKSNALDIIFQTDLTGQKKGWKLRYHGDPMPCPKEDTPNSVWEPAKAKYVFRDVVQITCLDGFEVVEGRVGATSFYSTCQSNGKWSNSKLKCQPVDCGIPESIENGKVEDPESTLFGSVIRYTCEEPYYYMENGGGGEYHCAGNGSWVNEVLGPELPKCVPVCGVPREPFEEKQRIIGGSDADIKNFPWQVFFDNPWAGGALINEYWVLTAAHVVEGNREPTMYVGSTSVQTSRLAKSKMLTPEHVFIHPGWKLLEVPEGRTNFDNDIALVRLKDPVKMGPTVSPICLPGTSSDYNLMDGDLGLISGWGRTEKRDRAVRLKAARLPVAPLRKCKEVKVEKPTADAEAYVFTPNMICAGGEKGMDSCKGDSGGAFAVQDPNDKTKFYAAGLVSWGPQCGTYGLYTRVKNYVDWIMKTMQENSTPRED
UniProt Q99856: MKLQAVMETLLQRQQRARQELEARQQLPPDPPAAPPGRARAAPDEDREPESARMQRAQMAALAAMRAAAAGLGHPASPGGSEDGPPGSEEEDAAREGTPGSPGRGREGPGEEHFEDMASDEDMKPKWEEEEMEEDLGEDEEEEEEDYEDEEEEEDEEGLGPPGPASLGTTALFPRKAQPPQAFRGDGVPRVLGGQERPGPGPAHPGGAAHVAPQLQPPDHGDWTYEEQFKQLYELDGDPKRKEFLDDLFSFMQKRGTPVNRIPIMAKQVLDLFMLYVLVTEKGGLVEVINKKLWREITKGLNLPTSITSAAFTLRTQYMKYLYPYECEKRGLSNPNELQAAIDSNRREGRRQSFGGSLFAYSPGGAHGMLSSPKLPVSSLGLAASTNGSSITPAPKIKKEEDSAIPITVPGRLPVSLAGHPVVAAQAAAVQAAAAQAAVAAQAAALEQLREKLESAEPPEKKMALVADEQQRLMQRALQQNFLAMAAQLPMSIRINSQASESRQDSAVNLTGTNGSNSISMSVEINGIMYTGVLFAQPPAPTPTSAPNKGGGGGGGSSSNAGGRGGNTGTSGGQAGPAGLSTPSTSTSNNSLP

B1: anti-C1s scFv 2.1L-2.1HA (scFv)
scFv: DVLMTQTPLSLPVSLGDQASISCRSSQSIVHSNGDTYLEWYLQKPGQSPKLLVYKLSNRFSGVPDRFSGSGSGTDFTLKISRVEAEDLGVYYCFQGSHVPLTFGAGTKLEIKGGGGSGGGGSGGGGSGGGGSQVQLQQSGAELARPGASVKMSCKASGYTFTSYTMHWVKQRPGQGLEWIGYINPSSGYTNYNQKFKDKATLTADKSSSTANMQLSSLTSEDSAVYYCARSDRYDGYFDYWGQGTTLTVSSA
B2: anti-C1s scFv 2.2L-2.2H (scFv)
scFv: DIVMTQSPASLAVSLGQRATISCRASESVDSYGNSFMHWYQQKPGQPPKLLIYRASNLESGIPARFSGSGSRTDFTLTINPVEADDVTTYYCQQSNEDPWTFGGGTKLEIKGGGGSGGGGSGGGGSGGGGSEVKLVESGGGFVKPGGSLKLSCAASGFTFSTYGMSWVRQTPEKRLEWVASISAGGTTYYSDSVKGRFTISRDNARNILYLQMSSLRSEDTAMYYCARWLLLAYWGQGTLVTSSA
B3: anti-Bright scFv 1.3L-1.3H (scFv)
scFv: DIVMTQSPASLAVSLGQRATISCRASESVDSYGNSFMHWYQQKPGQPPKLLIYLASNLESGVPARFSGSGSRTDFTLTIDPVEADDAVTYYCQQNNEDPRTFGGGTKLEIKGGGGSGGGGSGGGGSGGGGSEVQLVESGGGLVQPGGSRKLSCAASGFTFSSFGMHWVRQAPEKGLEWVAYISSGSRTIYYADSVKGRFTISRDNPKNTLFLQMTSLRSEDTAIYYCAREGYAYDVDYWGQGTTLTVSS
B4: anti-Bright scFv 1.4L-1.4H (scFv)
scFv: DIVMTQSPAIMSASPGEKVTITCSASSSVSYMHWFQQKPGTSPKLWIYSTSNLASGVPARFSGSGSGTSYSLTISRVEAEDAATYYCQQRSSYPLTFGAGTKLEIKGGGGSGGGGSGGGGSGGGGSEVQGVESGGGLVQPGGSRKLSCAASGFTFSSFGMHWVRQAPEKGLEWVAYISSGSSNIFYSDTVKGRFTISRDNPKNTLFLQMTSLRSEDTAMYYCARYDYGKDFDYWGQGTTLTVSS

Assays:
[1] = target: human complement protein C1s (human) (UniProt P09871); assay: ELISA, E. coli lysate with scFv on antigen-coated wells; + means >3-fold signal over unrelated antigen
[2] = target: human B cell regulator of IgH transcription (BRIGHT) (human) (UniProt Q99856); assay: as above

Row | Binder | binding [1] | binding [2]
1 | B1 | binds | –
2 | B2 | binds | –
3 | B3 | – | binds
4 | B4 | – | binds
